Source: patent US10716783B2, “Prolylhydroxylase/ATF4 inhibitors and methods of use for treating neural cell injury or death and conditions resulting therefrom” (CORNELL UNIVERSITY, priority 2013, dated 2020)
“Also recorded” adds a separate entry of the source.

Key:
[1] = tested on: intracerebral hemorrhage (collagenase into the striatum); experiment: Collagenase-induced ICH in mice; type: in vivo; settings: 30 mg/kg; seven days following ICH; x-ray fluorescence spectroscopy
Procedure: FIGS. 4A-4N. Adaptoquin delivered post-injury reduces cell death and enhances functional recovery post injury in mice and rats. Adaptoquin's effects in mice are not associated with global shifts of iron out of the brain. FIG. 4A: Experimental design for schedule of delivery of adaptaquin post-ICH. 30 mg/kg was delivered post-injury and then daily for seven days during which behavioral analysis was done. Mice were sacrificed at day 7 for qPCR and Fluoro-jade staining. […] FIG. 4J: Protocol for adaptoquin treatment of rats with ICH. ICH is modeled by autologous blood infusion and not collagenase in these studies. Behavior is tracked by a single pellet reaching task out to 28 days, but the schedule of infusion is similar to what is used in mice-2 hrs post blood infusion and then daily out to seven days. Behavior is monitored before, from 9-11 days and from 25-28 days. […] FIG. 4L: Protocol for evaluating the total concentrations of iron and zinc in brain following ICH in vehicle and adaptoquin treated mice. FIGS. 4M, 4N: Pseudocolored sections of collagenase induced ICH in mice after 7 days. […] These studies are consistent with the notion that adaptoquin works by inhibiting a specific metalloenzyme rather than global movement of metal ions. […] Total iron levels were monitored in brain sections from vehicle- and adaptoquin-treated (30 mg/kg) mice seven days following ICH.

[2] = Total iron content in neurons; type: cell-based; settings: mass spectrometry / inductively coupled plasma optical emission spectroscopy

Compound | Total iron in brain [1] | Total zinc in brain [1] | Total iron in neurons at protective concentrations [2]
Oc1cccnc1NC(c1ccc(Cl)cc1)c1ccc2cccnc2c1O (stereo not drawn) [adaptoquin] | no differences; also recorded: do not change | no differences; also recorded: do not change | 
Cc1cc(C2CCCCC2)n(O)c(=O)c1 [cyclopirox] |  |  | did not correlate with a significant change in total cellular iron levels; also recorded: not associated with significant (p>0.05) reductions in total iron
